At least one compound was matched to its structure with a doubt left.
Target: human CB1 (cannabinoid receptor 1) (Homo sapiens, UniProt P21554)
Experiment: CB1 receptor inhibition effect: calcium ion influx assay (Fluo-4 NW) in Chem-1 cells after 1 μM R-(+)-WIN55212-2
Assay type: cell-based
Conditions: Chem-1 cells stably expressing human CB1; agonist 1 μM R-(+)-WIN55212-2; compared with Examples 5 and 222
Protocol: When cells in which the cannabinoid receptor 1 (CB1) is stably expressed are treated with a CB1 receptor agonist, the CB1 receptor is activated and influx of calcium ions into the cells increases. CB1 receptor inhibition effect of a test compound can be evaluated by measuring the degree of calcium influx inhibition after treating with the test compound.
First, Chem-1 cells (Chemicon International, #HTS019C) in which human CB1 cDNA is expressed stably were seeded onto a 96-well cell culture plate at a density of ˜50,000 cells/well and incubated overnight in a 5% CO2 incubator at 37° C. The next day, the culture medium was discarded and the cells were cautiously washed once using an assay buffer (HBSS containing 20 mM HEPES and 2.5 mM probenecid) with 200 μL/well. Calcium ion influx was measured using an assay kit (Fluo-4 NW calcium assay kit: Molecular Probes™, #F36206) according to the manufacturer's instructions. The compounds of Examples of desired concentration to be measured were comprised to 0.5% DMSO. […] After treating the Chem-1 cells stably expressing the CB1 receptor with 1 μM R-(+)-WIN55212-2 (Sigma, #W102), a CB1 receptor agonist, calcium ion (Ca^2+) flux induced thereby was measured for 80 seconds using Flex Station 3 (Molecular Device, USA). […]
ΔRFU: maximum relative fluorescence units−minimum relative fluorescence units […]

Chains of the proteins cited; added tags and fusions are not shown.
UniProt P21554, whole entry: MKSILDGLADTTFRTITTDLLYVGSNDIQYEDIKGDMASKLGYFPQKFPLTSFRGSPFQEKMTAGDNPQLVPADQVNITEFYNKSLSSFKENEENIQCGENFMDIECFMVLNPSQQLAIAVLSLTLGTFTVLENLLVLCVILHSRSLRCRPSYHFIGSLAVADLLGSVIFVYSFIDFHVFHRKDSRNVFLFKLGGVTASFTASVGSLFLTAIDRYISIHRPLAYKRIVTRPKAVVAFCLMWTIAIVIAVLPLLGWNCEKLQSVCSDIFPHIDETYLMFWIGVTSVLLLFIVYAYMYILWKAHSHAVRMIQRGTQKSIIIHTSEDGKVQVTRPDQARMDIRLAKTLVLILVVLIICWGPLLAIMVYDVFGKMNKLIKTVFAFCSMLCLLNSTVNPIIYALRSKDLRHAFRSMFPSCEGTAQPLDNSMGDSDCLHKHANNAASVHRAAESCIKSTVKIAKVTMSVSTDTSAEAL

## Cc1nn2c(-c3ccccc3)cc(N3CCC[C@@H]3CO)nc2c1-c1ccc(Cl)cc1 [Example 305]
  CB1 receptor inhibition effect, (R)-isomers compared with (S)-isomers: lower CB1 receptor inhibition effect than the compounds of Examples 5 and 222

From patent US8975264B2, “Compound acting as a cannabinoid receptor-1 inhibitor” (Amorepacific Corporation, priority 2010, dated 2015)
